PMC3762332
The exact form of at least one protein or probe is not confirmed. For part of these data: Protein sequences can lack the tags named with them.

Protein sequences, listed by entry. Tags and fused reporters are not part of them. Lines headed by an entry give the natural chain unless they say otherwise; changes in a name come on top.
UniProt P43694: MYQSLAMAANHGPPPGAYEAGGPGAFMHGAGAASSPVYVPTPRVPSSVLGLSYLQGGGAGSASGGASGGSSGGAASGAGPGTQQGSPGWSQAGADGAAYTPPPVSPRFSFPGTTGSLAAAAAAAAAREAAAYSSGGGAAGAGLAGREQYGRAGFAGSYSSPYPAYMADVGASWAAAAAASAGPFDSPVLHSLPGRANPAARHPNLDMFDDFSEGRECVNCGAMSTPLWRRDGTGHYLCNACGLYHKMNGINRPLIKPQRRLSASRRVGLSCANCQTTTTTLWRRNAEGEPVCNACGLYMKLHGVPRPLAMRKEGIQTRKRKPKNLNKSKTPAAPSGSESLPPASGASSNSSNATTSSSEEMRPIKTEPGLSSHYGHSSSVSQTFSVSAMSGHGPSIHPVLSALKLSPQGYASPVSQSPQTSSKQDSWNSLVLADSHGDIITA
UniProt P19793: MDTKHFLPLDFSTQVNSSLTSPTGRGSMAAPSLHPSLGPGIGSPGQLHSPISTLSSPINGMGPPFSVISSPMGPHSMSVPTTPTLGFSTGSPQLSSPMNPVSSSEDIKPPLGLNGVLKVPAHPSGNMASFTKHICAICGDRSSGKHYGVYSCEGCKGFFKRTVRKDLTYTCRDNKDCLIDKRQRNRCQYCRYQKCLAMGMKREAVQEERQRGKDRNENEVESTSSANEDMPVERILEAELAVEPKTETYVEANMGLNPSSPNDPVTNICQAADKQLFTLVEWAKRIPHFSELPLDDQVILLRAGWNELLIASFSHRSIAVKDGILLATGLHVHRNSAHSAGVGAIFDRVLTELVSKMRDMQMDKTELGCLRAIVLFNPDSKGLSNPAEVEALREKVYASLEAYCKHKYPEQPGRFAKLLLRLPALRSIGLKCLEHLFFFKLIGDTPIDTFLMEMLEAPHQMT
UniProt P20719: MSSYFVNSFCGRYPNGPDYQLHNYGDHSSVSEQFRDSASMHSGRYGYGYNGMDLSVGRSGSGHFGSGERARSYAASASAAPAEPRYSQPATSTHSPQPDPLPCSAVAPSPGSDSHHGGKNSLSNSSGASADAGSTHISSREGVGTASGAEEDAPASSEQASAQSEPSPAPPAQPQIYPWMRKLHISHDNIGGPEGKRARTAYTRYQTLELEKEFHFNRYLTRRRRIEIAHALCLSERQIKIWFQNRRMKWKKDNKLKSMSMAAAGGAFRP
UniProt Q9BWM5: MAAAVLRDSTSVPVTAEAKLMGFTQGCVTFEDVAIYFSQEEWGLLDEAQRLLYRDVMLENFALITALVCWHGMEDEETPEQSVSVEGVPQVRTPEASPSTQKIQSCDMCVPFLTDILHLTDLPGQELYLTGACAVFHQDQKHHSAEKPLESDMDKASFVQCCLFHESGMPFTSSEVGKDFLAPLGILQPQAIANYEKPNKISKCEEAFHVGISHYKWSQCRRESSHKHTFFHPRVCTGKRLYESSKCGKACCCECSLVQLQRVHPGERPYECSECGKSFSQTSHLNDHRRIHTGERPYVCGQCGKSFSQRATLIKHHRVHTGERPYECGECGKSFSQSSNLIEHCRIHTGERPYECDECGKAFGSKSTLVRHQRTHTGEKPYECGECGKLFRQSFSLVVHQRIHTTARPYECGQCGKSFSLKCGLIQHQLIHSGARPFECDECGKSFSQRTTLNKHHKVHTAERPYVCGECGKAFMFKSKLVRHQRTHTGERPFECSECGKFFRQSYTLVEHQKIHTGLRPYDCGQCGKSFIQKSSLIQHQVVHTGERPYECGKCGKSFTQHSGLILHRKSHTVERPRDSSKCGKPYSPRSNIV
UniProt P37231: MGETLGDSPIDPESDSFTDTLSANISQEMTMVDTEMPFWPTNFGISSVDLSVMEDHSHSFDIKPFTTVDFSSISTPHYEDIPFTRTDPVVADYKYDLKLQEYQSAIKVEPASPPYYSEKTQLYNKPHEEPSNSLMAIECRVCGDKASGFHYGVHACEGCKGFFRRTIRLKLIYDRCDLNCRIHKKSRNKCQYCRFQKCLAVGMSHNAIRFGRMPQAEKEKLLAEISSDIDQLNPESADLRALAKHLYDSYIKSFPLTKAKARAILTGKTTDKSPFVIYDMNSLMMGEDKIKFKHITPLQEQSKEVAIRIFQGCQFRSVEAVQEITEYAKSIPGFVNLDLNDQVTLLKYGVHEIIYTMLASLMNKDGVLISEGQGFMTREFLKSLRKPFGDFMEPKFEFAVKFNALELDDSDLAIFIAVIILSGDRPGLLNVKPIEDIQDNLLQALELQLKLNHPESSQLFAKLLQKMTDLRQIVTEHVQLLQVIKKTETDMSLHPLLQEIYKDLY
UniProt Q8NC26: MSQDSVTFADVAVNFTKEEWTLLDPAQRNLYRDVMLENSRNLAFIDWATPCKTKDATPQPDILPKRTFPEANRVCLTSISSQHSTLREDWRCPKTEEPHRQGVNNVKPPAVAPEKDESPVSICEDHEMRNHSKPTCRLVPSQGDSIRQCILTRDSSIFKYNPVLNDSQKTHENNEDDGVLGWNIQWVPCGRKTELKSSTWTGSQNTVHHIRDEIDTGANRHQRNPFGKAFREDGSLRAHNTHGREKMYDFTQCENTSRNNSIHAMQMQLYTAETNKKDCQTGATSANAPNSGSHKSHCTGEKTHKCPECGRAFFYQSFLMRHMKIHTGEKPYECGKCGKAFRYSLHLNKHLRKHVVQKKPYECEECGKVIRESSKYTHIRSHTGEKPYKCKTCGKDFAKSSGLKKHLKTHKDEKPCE
UniProt O00716: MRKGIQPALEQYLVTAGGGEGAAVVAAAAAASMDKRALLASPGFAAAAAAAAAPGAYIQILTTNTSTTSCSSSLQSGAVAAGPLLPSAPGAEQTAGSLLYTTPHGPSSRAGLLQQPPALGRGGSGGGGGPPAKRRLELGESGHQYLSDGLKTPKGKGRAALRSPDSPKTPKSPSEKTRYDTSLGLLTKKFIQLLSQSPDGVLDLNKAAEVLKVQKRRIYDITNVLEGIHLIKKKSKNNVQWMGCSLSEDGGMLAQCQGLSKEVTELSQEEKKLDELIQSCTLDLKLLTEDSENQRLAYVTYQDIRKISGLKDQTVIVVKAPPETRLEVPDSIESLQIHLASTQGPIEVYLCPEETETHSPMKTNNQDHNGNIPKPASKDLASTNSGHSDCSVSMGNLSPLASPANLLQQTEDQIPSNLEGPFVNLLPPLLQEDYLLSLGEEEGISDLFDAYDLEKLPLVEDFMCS
UniProt P05549: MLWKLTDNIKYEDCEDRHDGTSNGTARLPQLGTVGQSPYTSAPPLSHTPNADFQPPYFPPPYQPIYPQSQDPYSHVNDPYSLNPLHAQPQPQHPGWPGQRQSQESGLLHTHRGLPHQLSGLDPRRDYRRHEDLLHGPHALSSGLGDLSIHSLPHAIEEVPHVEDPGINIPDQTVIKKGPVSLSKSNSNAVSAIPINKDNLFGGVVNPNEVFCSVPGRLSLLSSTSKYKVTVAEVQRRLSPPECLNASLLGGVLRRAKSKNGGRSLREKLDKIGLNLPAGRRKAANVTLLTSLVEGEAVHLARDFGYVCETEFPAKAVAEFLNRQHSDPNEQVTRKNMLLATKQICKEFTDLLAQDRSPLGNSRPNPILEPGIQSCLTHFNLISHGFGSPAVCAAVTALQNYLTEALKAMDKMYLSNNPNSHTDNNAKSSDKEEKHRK
UniProt Q9Y2L8: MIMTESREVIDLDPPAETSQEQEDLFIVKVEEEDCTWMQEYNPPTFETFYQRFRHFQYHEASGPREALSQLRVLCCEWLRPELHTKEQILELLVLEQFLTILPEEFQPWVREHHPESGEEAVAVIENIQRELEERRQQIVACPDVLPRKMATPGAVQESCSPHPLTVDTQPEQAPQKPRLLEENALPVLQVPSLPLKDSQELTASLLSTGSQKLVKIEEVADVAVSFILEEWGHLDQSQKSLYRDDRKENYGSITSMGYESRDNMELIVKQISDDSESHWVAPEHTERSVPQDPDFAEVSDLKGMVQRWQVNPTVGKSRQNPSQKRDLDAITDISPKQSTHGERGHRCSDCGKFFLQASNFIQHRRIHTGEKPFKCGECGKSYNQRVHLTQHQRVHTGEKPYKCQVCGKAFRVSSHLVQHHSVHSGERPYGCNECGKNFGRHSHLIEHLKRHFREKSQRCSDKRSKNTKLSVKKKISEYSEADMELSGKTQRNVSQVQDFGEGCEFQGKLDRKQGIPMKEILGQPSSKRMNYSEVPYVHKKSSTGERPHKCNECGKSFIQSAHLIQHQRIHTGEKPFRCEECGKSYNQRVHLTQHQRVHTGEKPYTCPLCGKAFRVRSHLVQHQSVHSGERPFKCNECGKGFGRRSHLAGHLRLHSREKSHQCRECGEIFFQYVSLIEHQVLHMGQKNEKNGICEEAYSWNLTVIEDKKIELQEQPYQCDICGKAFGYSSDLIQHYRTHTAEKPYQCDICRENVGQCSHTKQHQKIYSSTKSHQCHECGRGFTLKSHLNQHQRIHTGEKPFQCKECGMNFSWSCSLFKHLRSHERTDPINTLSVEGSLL
UniProt Q8IW36: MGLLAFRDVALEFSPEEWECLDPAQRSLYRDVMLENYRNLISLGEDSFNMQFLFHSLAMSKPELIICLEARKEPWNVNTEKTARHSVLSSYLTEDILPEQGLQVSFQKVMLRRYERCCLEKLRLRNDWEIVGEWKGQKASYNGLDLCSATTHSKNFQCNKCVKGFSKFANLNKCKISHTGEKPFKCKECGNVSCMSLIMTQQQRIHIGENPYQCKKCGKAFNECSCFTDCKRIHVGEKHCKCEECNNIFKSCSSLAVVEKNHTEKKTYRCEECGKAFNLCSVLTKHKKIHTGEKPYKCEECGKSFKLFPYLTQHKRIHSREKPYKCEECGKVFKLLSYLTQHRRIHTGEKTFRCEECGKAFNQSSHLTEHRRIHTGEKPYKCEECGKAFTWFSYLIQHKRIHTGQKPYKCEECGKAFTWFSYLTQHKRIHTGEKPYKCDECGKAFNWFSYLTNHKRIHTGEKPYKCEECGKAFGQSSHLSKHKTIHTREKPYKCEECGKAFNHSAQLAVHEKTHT
UniProt Q8TAF7: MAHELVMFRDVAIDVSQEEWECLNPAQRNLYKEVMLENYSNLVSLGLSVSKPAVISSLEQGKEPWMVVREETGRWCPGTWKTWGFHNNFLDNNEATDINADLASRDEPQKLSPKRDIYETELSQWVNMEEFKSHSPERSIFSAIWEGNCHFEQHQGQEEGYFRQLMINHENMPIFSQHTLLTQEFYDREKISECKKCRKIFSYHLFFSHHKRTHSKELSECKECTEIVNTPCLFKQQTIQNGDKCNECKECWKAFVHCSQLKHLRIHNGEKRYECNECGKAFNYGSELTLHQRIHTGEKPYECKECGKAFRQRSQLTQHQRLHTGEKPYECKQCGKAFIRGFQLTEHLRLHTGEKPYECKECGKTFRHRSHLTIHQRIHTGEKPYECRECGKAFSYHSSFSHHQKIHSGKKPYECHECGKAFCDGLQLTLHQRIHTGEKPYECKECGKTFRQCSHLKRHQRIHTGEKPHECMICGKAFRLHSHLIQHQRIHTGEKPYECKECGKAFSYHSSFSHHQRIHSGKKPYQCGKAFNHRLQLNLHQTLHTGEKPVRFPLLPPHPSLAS
UniProt Q15583: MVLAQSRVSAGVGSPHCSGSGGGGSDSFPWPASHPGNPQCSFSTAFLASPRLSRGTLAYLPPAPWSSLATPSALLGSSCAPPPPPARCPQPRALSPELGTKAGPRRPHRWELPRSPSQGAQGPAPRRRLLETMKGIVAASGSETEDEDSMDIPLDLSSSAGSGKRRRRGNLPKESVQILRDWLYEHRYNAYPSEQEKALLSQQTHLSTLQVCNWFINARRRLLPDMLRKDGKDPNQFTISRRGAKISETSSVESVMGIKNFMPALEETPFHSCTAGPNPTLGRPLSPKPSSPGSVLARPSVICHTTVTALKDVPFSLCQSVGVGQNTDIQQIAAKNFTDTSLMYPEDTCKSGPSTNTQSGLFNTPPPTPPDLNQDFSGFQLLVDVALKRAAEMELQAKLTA

Columns and labels:
Experiment in all cases: protein microarray
Settings in all cases: 10-fold cold unmethylated competitor; 5mC at CpG (SssI, both strands); recombinant protein; protein details: GST (N-terminal); label: Cy5
RNF138 (Homo sapiens) = target: T1, RNF138 (Homo sapiens) (UniProt Q8WVD3)
T1 sequence (looked up, limits assumed): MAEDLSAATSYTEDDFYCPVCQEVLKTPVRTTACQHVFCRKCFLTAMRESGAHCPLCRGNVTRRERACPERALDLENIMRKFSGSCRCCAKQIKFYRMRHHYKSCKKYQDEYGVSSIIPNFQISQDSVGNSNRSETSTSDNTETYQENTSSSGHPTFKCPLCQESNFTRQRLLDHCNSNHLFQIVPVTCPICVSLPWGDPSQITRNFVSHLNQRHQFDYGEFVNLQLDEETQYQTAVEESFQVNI

GATA4 (Homo sapiens) = GATA4 (Homo sapiens) (UniProt P43694)
RXRA (Homo sapiens) = RXRA (Homo sapiens) (UniProt P19793)
HOXA5 (Homo sapiens) = HOXA5 (Homo sapiens) (UniProt P20719)
KEAP1 (Homo sapiens) = KEAP1 (Homo sapiens) (UniProt Q14145)
NRF1 (Homo sapiens) = target: T2, NRF1 (Homo sapiens) (UniProt Q16656)
T2 sequence (looked up, limits assumed): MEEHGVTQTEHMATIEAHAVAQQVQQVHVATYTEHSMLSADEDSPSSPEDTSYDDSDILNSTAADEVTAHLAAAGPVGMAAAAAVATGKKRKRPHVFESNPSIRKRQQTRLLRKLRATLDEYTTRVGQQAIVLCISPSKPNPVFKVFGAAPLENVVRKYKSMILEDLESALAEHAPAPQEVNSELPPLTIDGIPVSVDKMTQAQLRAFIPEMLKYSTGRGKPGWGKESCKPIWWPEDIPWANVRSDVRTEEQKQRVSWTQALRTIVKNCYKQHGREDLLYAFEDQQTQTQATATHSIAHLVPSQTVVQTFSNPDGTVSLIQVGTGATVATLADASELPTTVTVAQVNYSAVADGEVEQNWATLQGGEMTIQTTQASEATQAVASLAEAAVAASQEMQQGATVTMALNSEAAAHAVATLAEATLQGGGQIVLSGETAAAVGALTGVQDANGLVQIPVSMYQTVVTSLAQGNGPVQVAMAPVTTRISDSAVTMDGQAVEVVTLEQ

SCAPER (Homo sapiens) = target: T3, SCAPER (Homo sapiens) (UniProt Q9BY12)
T3 sequence (looked up, limits assumed): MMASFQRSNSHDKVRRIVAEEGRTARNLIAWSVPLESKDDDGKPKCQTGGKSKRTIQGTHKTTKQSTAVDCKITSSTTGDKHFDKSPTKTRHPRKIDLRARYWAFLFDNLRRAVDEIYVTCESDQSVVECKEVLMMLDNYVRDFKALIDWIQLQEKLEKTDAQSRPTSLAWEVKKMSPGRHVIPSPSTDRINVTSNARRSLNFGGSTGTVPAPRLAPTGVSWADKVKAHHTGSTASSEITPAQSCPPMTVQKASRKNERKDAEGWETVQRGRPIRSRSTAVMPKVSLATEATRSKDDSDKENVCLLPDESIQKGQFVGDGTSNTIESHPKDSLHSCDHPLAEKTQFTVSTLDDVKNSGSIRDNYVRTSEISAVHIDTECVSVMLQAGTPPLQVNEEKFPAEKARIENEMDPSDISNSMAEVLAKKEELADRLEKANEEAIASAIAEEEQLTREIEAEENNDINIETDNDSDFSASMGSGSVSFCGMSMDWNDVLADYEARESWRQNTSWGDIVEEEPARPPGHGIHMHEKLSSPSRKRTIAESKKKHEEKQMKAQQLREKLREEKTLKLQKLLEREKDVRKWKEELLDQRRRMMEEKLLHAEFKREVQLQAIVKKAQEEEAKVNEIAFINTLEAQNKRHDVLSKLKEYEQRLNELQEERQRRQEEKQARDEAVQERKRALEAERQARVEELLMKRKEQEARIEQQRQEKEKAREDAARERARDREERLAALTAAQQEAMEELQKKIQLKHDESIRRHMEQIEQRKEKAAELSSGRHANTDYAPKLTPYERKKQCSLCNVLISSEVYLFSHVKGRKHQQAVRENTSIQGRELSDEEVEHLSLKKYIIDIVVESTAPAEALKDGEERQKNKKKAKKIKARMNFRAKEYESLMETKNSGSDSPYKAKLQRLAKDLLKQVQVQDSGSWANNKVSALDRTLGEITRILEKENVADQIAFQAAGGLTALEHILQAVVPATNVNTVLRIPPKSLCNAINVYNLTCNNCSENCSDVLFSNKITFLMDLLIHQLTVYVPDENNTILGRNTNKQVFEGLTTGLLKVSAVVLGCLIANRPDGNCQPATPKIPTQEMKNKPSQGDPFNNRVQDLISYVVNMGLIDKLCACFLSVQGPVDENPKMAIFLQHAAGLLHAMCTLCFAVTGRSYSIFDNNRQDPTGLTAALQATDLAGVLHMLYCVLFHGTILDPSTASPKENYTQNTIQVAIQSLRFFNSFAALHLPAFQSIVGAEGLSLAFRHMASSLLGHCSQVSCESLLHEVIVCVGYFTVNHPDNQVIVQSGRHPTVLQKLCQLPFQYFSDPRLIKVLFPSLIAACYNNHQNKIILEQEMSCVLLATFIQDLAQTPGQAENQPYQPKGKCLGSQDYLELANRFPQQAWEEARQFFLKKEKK

ZNF416 (Homo sapiens) = ZNF416 (Homo sapiens) (UniProt Q9BWM5)
PPARG (Homo sapiens) = PPARG (Homo sapiens) (UniProt P37231)
ZNF114 (Homo sapiens) = ZNF114 (Homo sapiens) (UniProt Q8NC26)
HOXA9 (Homo sapiens) = HOXA9 (Homo sapiens) (UniProt P31269)
ZCCHC7 (Homo sapiens) = target: T4, ZCCHC7 (Homo sapiens) (UniProt Q8N3Z6)
T4 sequence (looked up, limits assumed): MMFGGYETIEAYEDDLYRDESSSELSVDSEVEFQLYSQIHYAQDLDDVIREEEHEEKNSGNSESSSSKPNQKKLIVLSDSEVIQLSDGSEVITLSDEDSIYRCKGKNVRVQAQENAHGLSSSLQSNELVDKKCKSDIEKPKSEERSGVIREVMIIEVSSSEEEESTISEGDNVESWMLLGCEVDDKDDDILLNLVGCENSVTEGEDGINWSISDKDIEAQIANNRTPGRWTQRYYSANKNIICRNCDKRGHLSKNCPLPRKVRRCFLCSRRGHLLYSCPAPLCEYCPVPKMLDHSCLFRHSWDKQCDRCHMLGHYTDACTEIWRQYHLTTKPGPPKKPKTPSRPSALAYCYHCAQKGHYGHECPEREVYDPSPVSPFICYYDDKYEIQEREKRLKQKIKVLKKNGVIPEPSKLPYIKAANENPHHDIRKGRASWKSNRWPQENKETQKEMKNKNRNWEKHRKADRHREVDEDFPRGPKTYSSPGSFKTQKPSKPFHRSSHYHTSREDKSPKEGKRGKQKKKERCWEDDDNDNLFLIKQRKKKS

E2F3 (Homo sapiens) = E2F3 (Homo sapiens) (UniProt O00716)
BCL3 (Homo sapiens) = target: T5, BCL3 (Homo sapiens) (UniProt P20749)
T5 sequence (looked up, limits assumed): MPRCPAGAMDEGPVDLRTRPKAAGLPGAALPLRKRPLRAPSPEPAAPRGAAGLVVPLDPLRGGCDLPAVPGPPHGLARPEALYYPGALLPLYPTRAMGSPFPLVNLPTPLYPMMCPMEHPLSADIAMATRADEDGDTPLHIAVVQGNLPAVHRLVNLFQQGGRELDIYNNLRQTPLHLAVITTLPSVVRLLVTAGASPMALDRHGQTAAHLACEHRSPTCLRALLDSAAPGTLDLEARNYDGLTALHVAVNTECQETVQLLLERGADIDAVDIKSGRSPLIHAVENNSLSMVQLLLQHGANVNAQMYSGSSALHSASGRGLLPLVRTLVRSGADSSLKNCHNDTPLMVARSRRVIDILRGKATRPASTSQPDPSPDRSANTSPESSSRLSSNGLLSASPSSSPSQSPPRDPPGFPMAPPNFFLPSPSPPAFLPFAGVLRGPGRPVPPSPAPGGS

TFAP2A (Homo sapiens) = TFAP2A (Homo sapiens) (UniProt P05549)
ZKSCAN5 (Homo sapiens) = ZKSCAN5 (Homo sapiens) (UniProt Q9Y2L8)
ZNF695 (Homo sapiens) = ZNF695 (Homo sapiens) (UniProt Q8IW36)
CERS4 (Homo sapiens) = target: T6, CERS4 (Homo sapiens) (UniProt Q9HA82)
T6 sequence (looked up, limits assumed): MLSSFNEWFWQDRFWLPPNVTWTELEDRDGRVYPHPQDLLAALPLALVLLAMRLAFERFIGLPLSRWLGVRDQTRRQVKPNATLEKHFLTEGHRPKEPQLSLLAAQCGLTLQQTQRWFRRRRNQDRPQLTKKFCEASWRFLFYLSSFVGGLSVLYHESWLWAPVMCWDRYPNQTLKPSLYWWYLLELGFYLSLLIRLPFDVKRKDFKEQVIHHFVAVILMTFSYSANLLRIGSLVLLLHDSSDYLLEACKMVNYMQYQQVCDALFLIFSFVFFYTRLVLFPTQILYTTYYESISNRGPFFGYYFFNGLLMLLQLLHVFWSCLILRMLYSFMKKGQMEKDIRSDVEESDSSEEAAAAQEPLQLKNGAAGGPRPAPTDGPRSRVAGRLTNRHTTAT

ZNF461 (Homo sapiens) = ZNF461 (Homo sapiens) (UniProt Q8TAF7)
TGIF1 (Homo sapiens) = TGIF1 (Homo sapiens) (UniProt Q15583)
CALR (Homo sapiens) = target: T7, CALR (Homo sapiens) (UniProt P27797)
T7 sequence (looked up, limits assumed): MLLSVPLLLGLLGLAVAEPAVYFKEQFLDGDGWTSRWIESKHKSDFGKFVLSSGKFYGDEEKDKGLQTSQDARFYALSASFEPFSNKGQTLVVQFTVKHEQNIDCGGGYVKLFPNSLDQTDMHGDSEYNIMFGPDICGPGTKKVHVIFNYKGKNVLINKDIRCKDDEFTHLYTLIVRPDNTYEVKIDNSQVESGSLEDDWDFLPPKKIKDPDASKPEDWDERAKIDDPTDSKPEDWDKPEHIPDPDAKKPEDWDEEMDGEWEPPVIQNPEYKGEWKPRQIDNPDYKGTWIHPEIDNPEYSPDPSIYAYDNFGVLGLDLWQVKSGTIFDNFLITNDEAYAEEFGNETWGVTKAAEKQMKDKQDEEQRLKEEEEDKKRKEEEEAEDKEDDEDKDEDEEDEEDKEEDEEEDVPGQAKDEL

Measured: binding result

AAATGGCGAAAAAATGGCGCCCTATAGTGAGTGCTATTA (double strand) [M96]
binds: RNF138 (Homo sapiens) | GATA4 (Homo sapiens) | RXRA (Homo sapiens) | HOXA5 (Homo sapiens) | KEAP1 (Homo sapiens) | NRF1 (Homo sapiens) | SCAPER (Homo sapiens) | ZNF416 (Homo sapiens) | PPARG (Homo sapiens) | ZNF114 (Homo sapiens)

AACGGGTTTTTAACGGGTTCCCTATAGTGAGTGCTATTA (double strand) [M413]
binds: GATA4 (Homo sapiens) | HOXA5 (Homo sapiens) | KEAP1 (Homo sapiens) | HOXA9 (Homo sapiens) | ZCCHC7 (Homo sapiens) | SCAPER (Homo sapiens) | ZNF416 (Homo sapiens) | PPARG (Homo sapiens) | ZNF114 (Homo sapiens)

AAGATGGCGAAAAAGATGGCGCCCTATAGTGAGTGCTATTA (double strand) [M74]
not listed: KEAP1 (Homo sapiens) | ZCCHC7 (Homo sapiens) | TFAP2A (Homo sapiens) | ZKSCAN5 (Homo sapiens) | ZNF695 (Homo sapiens) | CERS4 (Homo sapiens) | ZNF461 (Homo sapiens) | TGIF1 (Homo sapiens) | CALR (Homo sapiens)
binds: all other assays above

CAAACGCTACCCCAAACGCTACCCTATAGTGAGTGCTATTA (double strand) [M279]
binds: GATA4 (Homo sapiens) | TFAP2A (Homo sapiens) | ZKSCAN5 (Homo sapiens) | E2F3 (Homo sapiens) | ZNF695 (Homo sapiens) | CERS4 (Homo sapiens) | ZNF416 (Homo sapiens) | ZNF114 (Homo sapiens)

CCGGACATAACGAAACCGGACATAACGCCCTATAGTGAGTGCTATTA (double strand) [M369]
binds: ZKSCAN5 (Homo sapiens) | RXRA (Homo sapiens) | HOXA5 (Homo sapiens) | ZNF461 (Homo sapiens) | TGIF1 (Homo sapiens) | SCAPER (Homo sapiens) | ZNF114 (Homo sapiens)

GGGAAACCGAAACAAAGGGAAACCGAAACCCCTATAGTGAGTGCTATTA (double strand) [M18]
binds: GATA4 (Homo sapiens) | TFAP2A (Homo sapiens) | ZKSCAN5 (Homo sapiens) | RXRA (Homo sapiens) | HOXA5 (Homo sapiens) | E2F3 (Homo sapiens) | CALR (Homo sapiens) | ZNF695 (Homo sapiens) | SCAPER (Homo sapiens) | ZNF416 (Homo sapiens) | ZNF114 (Homo sapiens)

TCGCTGTTGAAATCGCTGTTGCCCTATAGTGAGTGCTATTA (double strand) [M283]
binds: ZKSCAN5 (Homo sapiens) | E2F3 (Homo sapiens) | ZNF695 (Homo sapiens) | CERS4 (Homo sapiens) | ZNF416 (Homo sapiens) | ZNF114 (Homo sapiens)
